Results taken from publication PMC12436663.

Protein sequences, listed by entry. Tags and fused reporters are not part of them.
UniProt Q08857: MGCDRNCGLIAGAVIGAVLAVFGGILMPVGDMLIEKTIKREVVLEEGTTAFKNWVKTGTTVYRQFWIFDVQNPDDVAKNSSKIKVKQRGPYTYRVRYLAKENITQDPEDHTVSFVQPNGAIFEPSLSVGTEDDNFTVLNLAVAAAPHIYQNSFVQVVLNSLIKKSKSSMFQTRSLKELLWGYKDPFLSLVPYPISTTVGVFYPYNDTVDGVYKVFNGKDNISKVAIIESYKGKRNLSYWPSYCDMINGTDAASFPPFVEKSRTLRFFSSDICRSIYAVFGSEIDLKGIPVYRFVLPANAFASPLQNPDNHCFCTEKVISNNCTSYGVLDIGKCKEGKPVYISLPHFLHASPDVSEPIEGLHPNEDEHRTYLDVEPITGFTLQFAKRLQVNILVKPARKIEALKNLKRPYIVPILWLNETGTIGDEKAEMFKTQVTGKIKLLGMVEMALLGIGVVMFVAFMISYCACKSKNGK
UniProt P49817: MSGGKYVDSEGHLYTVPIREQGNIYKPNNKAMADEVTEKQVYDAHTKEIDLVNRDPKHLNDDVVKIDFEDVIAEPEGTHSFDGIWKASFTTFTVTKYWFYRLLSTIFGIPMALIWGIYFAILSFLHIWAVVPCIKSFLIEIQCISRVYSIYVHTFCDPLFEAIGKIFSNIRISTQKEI

Target: T1, Nutritionally regulated adipose and cardiac enriched protein (NRAC), endogenous mouse (mouse (endogenous in mouse adipose tissue)) (UniProt Q8BNX7)
T1 sequence: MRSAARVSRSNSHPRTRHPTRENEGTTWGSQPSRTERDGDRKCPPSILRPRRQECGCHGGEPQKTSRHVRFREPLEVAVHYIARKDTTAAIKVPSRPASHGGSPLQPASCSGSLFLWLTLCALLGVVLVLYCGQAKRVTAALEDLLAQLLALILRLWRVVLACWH
Assay: affinity purification with mass spectrometry; NRAC immunoprecipitated with the rat monoclonal NRAC antibody from PGF lysate of wt mice, PGF of Nrac ko mice as control (n = 4); IP lysis buffer 25 mM Tris HCl, 1 mM EDTA, 150 mM NaCl, 5% glycerol, 1% Triton X-100; overnight at 4 °C, Dynabeads …

Molecule | binding
CD36, endogenous mouse (from UniProt Q08857 1-472) (receptor) | binds
caveolin-1, endogenous mouse (from UniProt P49817 1-178) | binds
cavin 1, endogenous mouse (protein, UniProt O54724 1-392) MEDVTLHIVERPYSGFPDASSEGPEPTQGEARATEEPSGTGSDELIKSDQVNGVLVLSLLDKIIGAVDQIQLTQAQLEERQAEMEGAVQSIQGELSKLGKAHATTSNTVSKLLEKVRKVSVNVKTVRGSLERQAGQIKKLEVNEAELLRRRNFKVMIYQDEVKLPAKLSVSKSLKESEALPEKEGDELGEGERPEDDTAAIELSSDEAVEVEEVIEESRAERIKRSGLRRVDDFKKAFSKEKMEKTKVRTRENLEKTRLKTKENLEKTRHTLEKRMNKLGTRLVPVERREKLKTSRDKLRKSFTPDHVVYARSKTAVYKVPPFTFHVKKIREGEVEVLKATEMVEVGPEDDEVGAERGEATDLLRGSSPDVHTLLEITEESDAVLVDKSDSD | binds

No constants are given. Whether binding was seen depends on the method and setting. In cells and extracts the contact can be indirect. Here binding means that the protein was enriched with, or labelled near, the bait; the list need not be complete.
